In publication PMC6616311, “Reconstitution of Microtubule Nucleation In Vitro Reveals Novel Roles for Mzt1” (Current Biology, 2019):
These are yes or no findings as the source states them, for the method shown. Binding seen in cells or lysates may run through a third protein. Some results given as binding are weak or reduced against the parent protein; the word gives no strength. For some of these results: Where a sequence is shown, tags or fusion partners need not be part of it.

T1: Mto1[bonsai]-mECitrine (S. pombe) (UniProt O94488)
T1 sequence: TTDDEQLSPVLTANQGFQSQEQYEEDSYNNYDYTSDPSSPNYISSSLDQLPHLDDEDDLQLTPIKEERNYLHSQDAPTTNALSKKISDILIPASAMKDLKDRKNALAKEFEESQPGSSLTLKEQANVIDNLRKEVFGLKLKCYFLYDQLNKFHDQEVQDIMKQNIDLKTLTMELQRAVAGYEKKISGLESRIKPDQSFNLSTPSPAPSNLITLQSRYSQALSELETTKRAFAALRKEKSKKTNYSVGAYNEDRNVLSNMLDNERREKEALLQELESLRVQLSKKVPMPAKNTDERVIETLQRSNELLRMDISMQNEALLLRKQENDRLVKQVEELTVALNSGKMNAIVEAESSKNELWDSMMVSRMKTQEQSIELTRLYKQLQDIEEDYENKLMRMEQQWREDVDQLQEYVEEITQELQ

T2: Mto1/2[bonsai]^Strep-Mto1[bonsai] (S. pombe) (UniProt O94488+Q9USP7)
T2 sequence 1: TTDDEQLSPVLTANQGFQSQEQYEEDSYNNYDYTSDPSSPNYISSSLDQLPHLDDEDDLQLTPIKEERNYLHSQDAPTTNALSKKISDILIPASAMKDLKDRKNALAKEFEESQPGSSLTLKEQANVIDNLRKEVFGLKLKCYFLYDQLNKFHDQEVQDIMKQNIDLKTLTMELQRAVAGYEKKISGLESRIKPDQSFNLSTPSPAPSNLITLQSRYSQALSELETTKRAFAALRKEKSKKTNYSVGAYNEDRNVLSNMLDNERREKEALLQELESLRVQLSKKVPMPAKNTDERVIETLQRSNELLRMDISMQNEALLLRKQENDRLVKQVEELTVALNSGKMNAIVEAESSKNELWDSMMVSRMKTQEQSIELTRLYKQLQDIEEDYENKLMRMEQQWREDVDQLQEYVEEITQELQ
T2 sequence 2: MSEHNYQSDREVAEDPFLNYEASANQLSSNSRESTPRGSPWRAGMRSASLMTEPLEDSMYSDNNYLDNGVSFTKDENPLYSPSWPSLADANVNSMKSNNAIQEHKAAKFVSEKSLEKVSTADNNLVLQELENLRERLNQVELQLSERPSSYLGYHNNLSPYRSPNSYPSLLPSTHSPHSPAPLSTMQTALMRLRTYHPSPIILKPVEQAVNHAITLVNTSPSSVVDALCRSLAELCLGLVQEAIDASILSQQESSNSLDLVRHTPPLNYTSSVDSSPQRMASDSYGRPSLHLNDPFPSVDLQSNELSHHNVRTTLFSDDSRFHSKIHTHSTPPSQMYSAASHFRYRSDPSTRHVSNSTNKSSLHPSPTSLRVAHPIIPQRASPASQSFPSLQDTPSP

T3: Mto1/2[bonsai]^GST-Mto1[bonsai] (S. pombe) (UniProt O94488+Q9USP7)
T3 sequence 1: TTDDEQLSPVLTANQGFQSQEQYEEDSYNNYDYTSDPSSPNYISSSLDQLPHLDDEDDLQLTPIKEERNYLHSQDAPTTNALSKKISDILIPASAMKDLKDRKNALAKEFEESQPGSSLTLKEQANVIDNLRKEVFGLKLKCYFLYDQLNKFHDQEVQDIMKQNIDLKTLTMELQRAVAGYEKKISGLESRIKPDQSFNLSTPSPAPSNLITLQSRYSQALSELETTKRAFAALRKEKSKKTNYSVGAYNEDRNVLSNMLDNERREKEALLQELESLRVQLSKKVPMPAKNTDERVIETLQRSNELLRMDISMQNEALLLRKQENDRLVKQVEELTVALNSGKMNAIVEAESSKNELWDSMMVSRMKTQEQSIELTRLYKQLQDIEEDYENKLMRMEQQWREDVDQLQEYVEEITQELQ
T3 sequence 2: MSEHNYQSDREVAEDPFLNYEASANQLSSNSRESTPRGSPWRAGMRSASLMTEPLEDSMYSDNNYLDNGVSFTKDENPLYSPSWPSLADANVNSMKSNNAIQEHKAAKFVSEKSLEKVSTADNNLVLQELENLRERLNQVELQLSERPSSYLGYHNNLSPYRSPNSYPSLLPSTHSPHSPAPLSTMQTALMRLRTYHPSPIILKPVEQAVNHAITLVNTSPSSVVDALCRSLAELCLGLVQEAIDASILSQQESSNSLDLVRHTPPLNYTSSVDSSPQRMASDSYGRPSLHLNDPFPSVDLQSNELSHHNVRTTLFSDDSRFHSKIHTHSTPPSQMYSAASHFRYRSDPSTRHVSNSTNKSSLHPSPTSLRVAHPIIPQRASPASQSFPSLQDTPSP


Assays:
[1] = molecular target: T1, Mto1[bonsai]-mECitrine (S. pombe); experiment: co-IP; anti-GFP antibody on Protein G Dynabeads precipitates Mto1[bonsai]-mECitrine from S. pombe lysates (control strain KS10055 and nmt81:3xFLAG-mzt1 strain KS10059, without or with 20 μM thiamine for 16 hr); IP buffer 50 mM Tris-HCl pH 7.5, 150 mM NaCl, 0.2% Triton X-100; western blot
[2] = molecular target: T2, Mto1/2[bonsai]^Strep-Mto1[bonsai] (S. pombe); experiment: pull-down; Strep-Tactin Sepharose purification from High Five cells coexpressing Strep-Mto1/2[bonsai], untagged γ-TuSC and Mzt1; overnight 4°C; SDS-PAGE and western blot
[3] = molecular target: T3, Mto1/2[bonsai]^GST-Mto1[bonsai] (S. pombe); experiment: pull-down; glutathione agarose purification from High Five cells coexpressing GST-Mto1[bonsai], Mto2, untagged γ-TuSC and Mzt1; HB100, overnight 4°C; SDS-PAGE and western blot

Binder	binding [1]	binding [2]	binding [3]
Alp6 (endogenous, S. pombe) (protein, UniProt Q9USQ2 1-832) MSEIHVKTALSRLADKYLQNSKNPSVPYTIETIVSFFQEIIHSISPDTFQLDIDDILYKIYSKIPPEENNDALFSKLSNLVSRLKSQTVIHNKSQILYFLYLLSPISQSSRDVSSHLLDESISNPINIPSTEVESSNFGQTRYDQVPENPQITDWDEGLENESSISIAHDSSRLNRSTETSSVQHTLITEADLLSSISYVLQGISTEYVQFKNELALLSKRIPVQYLLQMRALSETGLLYQELKVFSNYDPSVSQSIDGDNVSKAFINDQSLALQSLKSVISKELTNFLALIASLDSQIRADASLEKPMVTIRRCIAWTQVAKLKLRILSSVVNDNMNQENKKRLIQVVSKYNVHGDPLIQELSDKILTEITGPLYEMIENWIYKGELVDPYQEFFVKEKNGSESHDHQGQGDVVWKGKYFLDKELIPSFLSEELVDKIFLIGKSLNFARYGCGDFDWAQEHYQKLVKKLSYRDPHSLETVVDKAYTESINHLVYLMEEVFHLTDHLKAIKKYLLLGQGDFVDLLMESLGNSLDQPANTLFRHNLTASLESAIRSSNASYEPEYVLKRLDARLLELSHGETGWDVFTLEYKVDSPINVIITPYCSRQYLKIFNFLWRLKRIEFALAHSWRRVNLGERNVFRNLDYTKFEWHFVSCHLAEMIHFVCQLQYYILFEVIEISWQELQLAMEKPNATLDTYIEAHEKYVTSITHKGLLGGGKSRNEDSFLHQLHDILKVILNFHDAIELLYNFSCSLSNRIRINVPISTDALAAQYTPIKNELSNFTEEFQVRLQKLLHGLASHKDPEMRFLSVRLNYNEFYVSHRRRHDKDVTSQ	binds		
γ-tubulin (Gtb1), untagged (natural protein, S. pombe, UniProt P25295 1-446, looked up, γ-tubulin Gtb1 of S. pombe; source: High Five insect cells (MultiBac baculovirus), coexpressed with partners; in lysate, and co-purified in complexes) MGREIITLQAGQCGNQIGSQFWQQLCLEHGIGPDGTLESFATEGVDRKDVFFYQSDDTRYIPRAILIDLEPRVVNNILSDTYGSLYNPENILITKNGGGAGNNWANGYSHAERIFEDIMDMIDREADGSDSLEGFSLLHSIAGGTGSGLGSFLLERLNDRYPKKIIQTYSVFPNSQSVSDVVVQPYNSLLALKRLTLNADSVVVLDNAALAHIAADRLHTQNPTFHQQNQLVSTVMSASTTTLRYPGYMNNDLVSIIASLIPSPRCHFLLTSYTPFTNQQVEEAKAIRKTTVLDVMRRLLLPKNQMVSVNPSKKSCFISILDIIQGEADPADVHKSLLRIRERRYASFIPWGPASIQVALSKKSPYIKTNHRVSGLMLANHTSIASLFKRTLDQYDRLRKRNAFLEQYKKEAIFEDDLNEFDSSRDVVADLINEYEACEDPNYLSL		binds	binds
Alp4 (endogenous, S. pombe) (protein, UniProt Q9Y705 1-784) MVRSISSVLAKEESENGSPIPALEEGSVYHVSLKSEGVSPFSDRIQLNYLYDGKTFSDPSNLNIHQQEACLINELLNAFMGMEGVFVHLQDMKASSEFETIIMPPSFYILPGFDLGIKDIASEMLEMGSHYLSITAFIESRSHFEYGFVNHALCAALRKFVMDYVVLIMQCENQSRIDPNFSLQTLRLYTLPTSRSLRQVYLILRDLLLSMEKNASSSDDLGLSNIDDLLEQLNEGNDISHVVNATRSKKKVCKGGQVISFLTESLTKYAGDPVARKILTYLLREASRPYTKMLNEWIHLGLVNDPYDEFMIKIHKGITSMQLDEDYTDEYWEKRYVIREDQVPPQLLDLQNKVLFAGKYLNVVLECRKGVNNLASLNAKDDTQNQLLWPSTFDDDNFTLNIMNAYVYANESLLQLLQSSQSLYAHLYSLKHYFFLDQSDFFTTFLDNAQHELRKPAKYISITKLQSQLDLALRQPGTITATDPHKEYVTVEVNQTSLIDWLMHIVSISGLEEGTSSQGNEVWNESITKQADVGNETRNFESEHNRSTQGTSKVGSDKDINGFETMQLCYKVPFPLSLILSRKAIIRYQLLFRYFLLLRHVEMQLENSWVQHSKNSAWRLNSSNAKIEQWKRNSWLLRTRMLSFVQKIIYYTTSEVIETHWGKFMGELENARTVDNLMQEHIDFLDTCLKECMLTNSRLLKVQSKLLNTCAMFASYTSTFTRSLYLLENSEESFDEGRMDKMEEILRRYEDSFSRHLKSLVNACNYFASTETAALLSLVMKLTG	binds		
